This is one part of the list. The main result of the screen is listed elsewhere. These columns were measured beside it and carry no call. Compounds called inactive in the main read-out are mostly missing here. The note in brackets gives the kind of curve behind each potency; many fits are weak.
Assay: qHTS Assay for Lipid Storage Modulators in Drosophila S3 Cells;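 for cell number change: cells counted by Cell Tracker Red CMTPX staining in the red channel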
Conditions: BODIPY lipid droplet fluorescence, 18-24 h; for cell number change: measured here: cell count max response, cells fed with added oleic acid
Summary of the method: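 Drosophila S3 cells loaded with oleic acid (400 uM, as added) and compounds at several concentrations; lipid droplets imaged by 488-nm laser-scanning cytometry, 500–530 nm intensity and object ratio to cell channel. Percent activity normalized to 20 uM Triacsin C.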

[1] = measured here: cell number channel AC50, cells fed with added oleic acid
[2] = measured here: lipid fluorescence (Fed channel) AC50, cells fed with added oleic acid

Structure (SMILES)	cell number change [%]	AC50 [1]	AC50 [2]
COc1cccc(CNCCc2c[nH]c3ccccc23)c1OCc1ccccc1	-56.3	16.4 µM [falling, single point]	16.4 µM [falling, partial curve]
CCc1cc(C(=O)N/N=C/c2ccc(OC)cc2)c2ccccc2n1	27.8	–	29.1 µM [falling, partial curve]
CCC(C)N(C(=O)COC(=O)Cc1n[nH]c(=O)c2ccccc12)C1CCS(=O)(=O)C1 (stereo unspecified)	1.07	–	–
CCCC(=O)Nc1nc(-c2ccccc2)c(CC)s1	33.3	25.9 µM [rising, partial curve]	0.411 µM [rising, full curve]
CCOC(=O)C1CSC2(CCC(c3ccccc3)CC2)N1 (stereo unspecified)	-44.3	16.4 µM [falling, partial curve]	10.3 µM [falling, partial curve, poor fit]
Cc1ccsc1C1NC(=O)c2c(sc3c2CCN(C)C3)N1 (stereo unspecified)	-15.9	1.84 µM [falling, partial curve, poor fit]	3.26 µM [falling, single point]
Cc1ccc(NCC(=O)N/N=C\C(Br)=C\c2ccccc2)cc1	-112	23.1 µM [falling, single point]	3.66 µM [rising, partial curve]
COc1ccc2nc(CC(C)(C)CC(=O)O)c[n+]([O-])c2c1	5.37	–	1.3 µM [falling, partial curve]
CC(OC(=O)c1cccc(S(=O)(=O)N2CCCCC2)c1)C(=O)NCC1CCCCC1 (stereo unspecified)	10	–	–
CN1CCN(C(=S)NCCc2ccccc2)CC1	-25.4	0.82 µM [falling, full curve, poor fit]	0.82 µM [falling, full curve]
Cc1[nH]nc2c1C1(CCOCC1)C(C#N)=C(N)O2	3.72	–	1.3 µM [rising, partial curve]
CC(=O)c1ccc(NC(=O)CSc2nnc(Cn3cnc4ccccc43)o2)cc1	16.1	–	25.9 µM [rising, partial curve, poor fit]
Clc1ccc(-c2nc(N3CCOCC3)nc3ccccc23)cc1	-5.11	–	–
CN(C)c1ccc(C2NC(=O)c3ccccc3N2)cc1 (stereo unspecified)	-39.6	3.66 µM [falling, partial curve, poor fit]	–
COc1cc(NC(=O)Cn2cnc(S(=O)(=O)N3CCC(C)CC3)c2)cc(OC)c1OC	3.24	–	18.4 µM [rising, single point]
COc1ccc(C2C(C(=O)c3cc4cccc(OC)c4o3)=C(O)C(=O)N2CCCN(C)C)cc1OC (stereo unspecified)	15.3	0.00461 µM [rising, full curve, poor fit]	0.58 µM [falling, full curve]
S=C(Nc1cccc(Cl)c1)NC1CC2CCCC(C1)N2C1CCCC1 (stereo unspecified)	8.41	4.11 µM [rising, single point]	–
Cc1cc(C)c(S(=O)(=O)N2CCCCC2CCNC(=O)C(=O)NCCN2CCOCC2)c(C)c1 (stereo unspecified)	–	–	6.51 µM [falling, single point]
CCOc1ccc2nc(N3CCC(C(=O)NCCCN4CCOCC4)CC3)sc2c1	-4.48	–	0.461 µM [falling, full curve]

Molecules listed so far containing an NH in an aromatic ring:
Structure (SMILES)	cell number change [%]	AC50 [1]	AC50 [2]
COc1cccc(CNCCc2c[nH]c3ccccc23)c1OCc1ccccc1	-56.3	16.4 µM [falling, single point]	16.4 µM [falling, partial curve]
CCC(C)N(C(=O)COC(=O)Cc1n[nH]c(=O)c2ccccc12)C1CCS(=O)(=O)C1 (stereo unspecified)	1.07	–	–
Cc1[nH]nc2c1C1(CCOCC1)C(C#N)=C(N)O2	3.72	–	1.3 µM [rising, partial curve]

Carrying on.

Structure (SMILES)	cell number change [%]	AC50 [1]	AC50 [2]
Cn1cnnc1SCc1cccc(Br)c1	35.3	18.4 µM [rising, partial curve, poor fit]	18.4 µM [rising, partial curve, poor fit]
CN(c1cccc(NC(=O)CCSc2ccccc2)c1)S(C)(=O)=O	-1.15	–	29.1 µM [rising, single point]
CCn1ncc(S(=O)(=O)NCc2ccccc2Cl)c1C	-9.12	–	6.51 µM [falling, single point]
Fc1ccccc1C1CC(c2ccco2)=Nc2ccccc2S1 (stereo unspecified)	-31.2	18.4 µM [falling, single point]	18.4 µM [falling, single point]
COc1cc(C2SCC(=O)N2CCc2ccc(OC)c(OC)c2)ccc1O (stereo unspecified)	-49.8	4.61 µM [falling, full curve, poor fit]	4.61 µM [falling, full curve]
COc1ccc(/C=C(/NC(=O)c2ccc(OC)cc2)C(=O)NCCc2c[nH]c3ccccc23)cc1	1.18	–	0.82 µM [rising, partial curve]
Cc1cc(NC(=O)OC(C)C)ccc1-c1ccc(NC(=O)OC(C)C)cc1C	35.7	0.326 µM [rising, full curve, poor fit]	0.461 µM [rising, full curve]
N#C/C(=C\C1=C(N2CCOCC2)C(=C/c2cccc([N+](=O)[O-])c2)/CC1)C(=O)Nc1ccccc1F	–	–	2.59 µM [falling, full curve]
CCn1c(=O)c2sccc2n(CC(=O)NCCC2=CCCCC2)c1=O	13.7	–	1.46 µM [falling, full curve]
Cn1c(C(=O)OC(C(=O)NC2CCCCC2)c2cccnc2)cc2sccc21 (stereo unspecified)	–	1.03 µM [rising, partial curve]	–
CN(C)c1ccc(NC(=O)Nc2ccc3snnc3c2)cc1	16.8	–	0.461 µM [rising, full curve, poor fit]
CC(C)(C)c1cc(Cc2ccccc2)[nH]n1	-4.56	–	–
Nc1nc2nccc(-c3ccco3)n2n1	-52.9	1.46 µM [falling, full curve, poor fit]	1.46 µM [falling, partial curve]
C=CCNC(=O)c1ccccc1Cl	106	29.1 µM [rising, single point]	–
Cn1c(=S)[nH]c2ccccc21	30.9	0.206 µM [rising, full curve, poor fit]	–
Cc1c(C#N)c2ncn(Cc3ccccn3)c(=O)c2n1-c1ccccc1	22.1	0.366 µM [rising, single point]	–
COc1ccc(NC(C)=O)cc1NC(C)C(=O)Nc1cccc2ccccc12 (stereo unspecified)	23.7	–	23.1 µM [rising, partial curve]
COCCN(C(=O)COC(=O)CSc1ccc(Cl)cc1)c1c(N)n(CC(C)C)c(=O)[nH]c1=O	-17.5	–	6.51 µM [falling, single point]
CCCOc1ccc(-c2nc(C#N)c(NCCCn3ccnc3)o2)cc1	-13.9	–	0.116 µM [rising, full curve, poor fit]

Structure (SMILES)	cell number change [%]	AC50 [1]	AC50 [2]
CCOc1ccc(N2CC(C(=O)N3CCCCCC3)CC2=O)cc1 (stereo unspecified)	25.6	–	18.4 µM [rising, partial curve]
CCOc1ccc(S(=O)(=O)NCc2cccnc2)c2ccccc12	-6.09	–	29.1 µM [falling, single point]
CC(=O)Nc1cccc(C(=O)/C=C/c2cccs2)c1	-82.5	18.4 µM [falling, partial curve]	0.13 µM [falling, full curve]
Cc1ccc(C)c(OCCC(=O)NNC(=O)Cn2nc(C)cc2C)c1	–	6.51 µM [falling, single point]	–
COc1cccc(C(=O)NCCNC(=O)c2ccco2)c1	15.8	0.00461 µM [rising, full curve, poor fit]	–
COc1ccc(C)cc1NC(=O)CNC(c1ccccc1)c1ccc(C)cc1 (stereo unspecified)	101	23.1 µM [rising, partial curve]	20.6 µM [rising, partial curve]
Cc1ccccc1Oc1cccc(C(=O)/C(C#N)=C/N(C)C)c1	3.64	6.51 µM [rising, single point]	6.51 µM [rising, single point]
Cc1cccc(C(=O)Oc2ccccc2-c2nnco2)c1	–	0.116 µM [falling, full curve, poor fit]	–
CSc1nc(-c2cccs2)c(C#N)c(=O)[nH]1	-30.9	0.731 µM [falling, full curve]	–
Oc1ccccc1-c1nnc(COc2ccccc2)o1	8.97	0.146 µM [rising, full curve, poor fit]	0.164 µM [rising, full curve, poor fit]
O=C1/C(=C\c2cccs2)N=C(c2cccs2)N1Nc1ccccc1	50.3	1.46 µM [rising, full curve]	–
O=C(N/N=C/c1ccc(OC(=O)c2ccccc2Cl)cc1)c1cc(O)cc(O)c1	-20.8	–	29.1 µM [falling, single point]
Cc1nc2ccccc2nc1Nc1cccc(Cl)c1	28.8	–	6.51 µM [rising, single point]
COc1ccc(CN2C=C3C(=O)C(C)(OC(=O)CCc4ccccc4)C(=O)C=C3C=C2c2ccc(C#N)cc2)cc1 (stereo unspecified)	16.5	–	7.31 µM [rising, partial curve, poor fit]
Cn1cc(S(=O)(=O)NCc2ccc(F)cc2)c(=O)n(C)c1=O	5.16	–	0.103 µM [rising, full curve, poor fit]
CC(=O)c1ccc(N2CCN(C(=S)Nc3cccc(Cl)c3)CC2)cc1	-3.6	–	1.84 µM [rising, full curve]
COc1ccccc1N1C(=O)C2C3C=CC(C3)C2(C)C1=O (stereo unspecified)	-31.4	7.31 µM [falling, partial curve, poor fit]	25.9 µM [falling, single point]
CC(=O)c1ccc(NS(=O)(=O)c2ccc(CC(C)C)cc2)cc1	-49.2	18.4 µM [falling, single point]	18.4 µM [falling, single point]

Reference: PubChem BioAssay AID2685 (National Center for Advancing Translational Sciences (NCATS), 2010)
